No constants are given. Whether binding was seen depends on the method and setting. In cells and extracts the contact can be indirect. Some entries that bind do so weakly or less than the wild type.

Sequences of proteins named here, by UniProt entry; tags and fusion partners are left off.
UniProt Q9UKV8: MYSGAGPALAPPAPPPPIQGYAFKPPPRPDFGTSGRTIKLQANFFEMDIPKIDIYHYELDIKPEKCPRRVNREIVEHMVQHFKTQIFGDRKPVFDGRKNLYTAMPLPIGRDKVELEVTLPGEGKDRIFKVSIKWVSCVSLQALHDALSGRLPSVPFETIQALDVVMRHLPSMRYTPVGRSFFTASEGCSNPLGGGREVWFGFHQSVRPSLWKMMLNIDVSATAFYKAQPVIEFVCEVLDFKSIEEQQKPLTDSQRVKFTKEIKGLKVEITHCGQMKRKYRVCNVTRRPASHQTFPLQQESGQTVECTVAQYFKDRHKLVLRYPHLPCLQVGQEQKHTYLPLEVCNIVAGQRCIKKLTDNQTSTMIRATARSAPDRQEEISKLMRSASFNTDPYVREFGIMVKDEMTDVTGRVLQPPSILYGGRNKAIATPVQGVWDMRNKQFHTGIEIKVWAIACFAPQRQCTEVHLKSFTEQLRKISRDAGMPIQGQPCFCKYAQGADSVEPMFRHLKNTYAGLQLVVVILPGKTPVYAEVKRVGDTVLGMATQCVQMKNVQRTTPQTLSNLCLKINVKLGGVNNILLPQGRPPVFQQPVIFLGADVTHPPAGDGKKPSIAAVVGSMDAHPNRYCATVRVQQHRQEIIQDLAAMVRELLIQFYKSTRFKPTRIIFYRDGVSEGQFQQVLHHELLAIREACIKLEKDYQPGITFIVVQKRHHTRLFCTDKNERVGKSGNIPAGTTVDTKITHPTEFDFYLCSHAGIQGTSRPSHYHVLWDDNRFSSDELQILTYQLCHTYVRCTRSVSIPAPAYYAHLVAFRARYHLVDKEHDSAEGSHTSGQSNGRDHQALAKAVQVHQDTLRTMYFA

The target of assay [1] is T1, endogenous SHARPIN (HeLa cells) (human (endogenous in HeLa)), Q9H0F6.
T1 chain: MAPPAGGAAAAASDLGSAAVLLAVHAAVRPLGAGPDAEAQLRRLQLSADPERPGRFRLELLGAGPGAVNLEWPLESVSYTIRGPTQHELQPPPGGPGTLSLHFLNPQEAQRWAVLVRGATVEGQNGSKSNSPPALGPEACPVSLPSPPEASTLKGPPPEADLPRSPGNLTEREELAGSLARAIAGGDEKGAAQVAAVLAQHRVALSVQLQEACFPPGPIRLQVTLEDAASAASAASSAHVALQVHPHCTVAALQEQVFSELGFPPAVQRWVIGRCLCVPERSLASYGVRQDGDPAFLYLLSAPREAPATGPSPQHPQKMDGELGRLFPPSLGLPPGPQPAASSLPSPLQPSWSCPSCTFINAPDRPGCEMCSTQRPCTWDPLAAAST
Briefly: co-IP; endogenous proteins, HeLa lysate, co-IP with anti-SHARPIN antibody, WB; RIPA lysis buffer. Particulars: remark: other sources report otherwise.

The target in assay [2] is T2, endogenous HOIL-1L (HeLa cells) (human (endogenous in HeLa)), Q9BYM8.
T2 chain: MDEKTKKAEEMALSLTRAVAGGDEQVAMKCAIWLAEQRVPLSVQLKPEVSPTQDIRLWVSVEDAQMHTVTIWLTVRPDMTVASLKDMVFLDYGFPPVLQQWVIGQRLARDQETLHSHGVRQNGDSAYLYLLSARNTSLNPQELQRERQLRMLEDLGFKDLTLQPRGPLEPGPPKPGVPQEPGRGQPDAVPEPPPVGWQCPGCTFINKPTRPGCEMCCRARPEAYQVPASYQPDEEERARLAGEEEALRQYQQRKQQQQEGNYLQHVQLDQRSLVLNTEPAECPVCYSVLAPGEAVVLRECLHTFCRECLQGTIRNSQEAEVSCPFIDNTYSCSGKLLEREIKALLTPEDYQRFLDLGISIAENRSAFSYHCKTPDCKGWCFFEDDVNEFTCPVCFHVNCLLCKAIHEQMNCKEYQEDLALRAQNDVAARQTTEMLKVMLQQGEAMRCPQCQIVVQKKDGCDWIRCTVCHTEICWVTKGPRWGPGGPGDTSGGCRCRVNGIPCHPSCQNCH
Description: co-IP; endogenous proteins, HeLa lysate, co-IP with anti-HOIL-1L antibody, WB; untreated or hypoxia for indicated times; RIPA lysis buffer. Particulars: remark: other sources report otherwise.

Assay [3] deals with endogenous AGO2 (HeLa cells) (human (endogenous in HeLa)) (UniProt Q9UKV8). Description: co-IP; endogenous proteins, HeLa lysate, co-IP with anti-AGO2 antibody, WB; normoxia or hypoxia; also stable HOIL-1L-knockdown HeLa cells; RIPA lysis buffer.

B1: endogenous HOIL-1L (HeLa cells), Q9BYM8-1 1-510 (protein)
chain: T2 chain
Take B1: the binding result in assay [1] is on record as “binds”.

B2: endogenous SHARPIN (HeLa cells), Q9H0F6 1-387 (protein)
chain: T1 chain
With B2, the binding entry in assay [2] is “binds”.

B3: endogenous SHARPIN (HeLa cells) (protein, UniProt Q9H0F6 1-387)
chain: T1 chain
Regarding B3, in assay [3], the binding entry is on record as “binds”.

The values are drawn from paper PMC8438024.
